{"source": "patent US6358701B1", "about": "“DNA molecules encoding Ctenocephalides felis glutamate gated chloride channels” (Merck & Co., Inc., priority 1997, dated 2002)", "tested_on": "CfGluCl-1 (C. felis GluCl channel)", "test": "Two microelectrode voltage clamp of Xenopus oocytes expressing CfGluCl-1", "type": "cell-based, Ctenocephalides felis", "settings": "holding potential 0 mV", "method": "The full-length cDNA encoding CfGluCl-1 in plasmid vector pBluescript (Stratagene, LaJolla, Calif.) is linearized and capped cRNA transcripts are synthesized using appropriate oligonucleotide primers and the mMESSAGE mMACHINE in vitro RNA transcription kit (Ambion). Xenopus laevis oocytes were prepared and injected using standard methods as described (Arena et al., 1991, Mol. Pharmacol. 40: 368-374; Arena et al, 1992, Mol. Brain Res. 15: 339-348). Adult female Xenopus laevis were anesthetized with 0.17% tricaine methanesulfonate and the ovaries were surgically removed and placed in a dish consisting of (mM): NaCl 82.5, KCl 2, MgCl2 1, CaCl2 1.8, HEPES 5 adjusted to pH 7.5 with NaOH (OR-2). Ovarian lobes were broken open, rinsed several times, and gently shaken in OR-2 containing 0.2% collagenase (Sigma, Type IA) for 2-5 hours. When approximately 50% of the follicular layers were removed, Stage V and VI oocytes were selected and placed in media consisting of (mM): NaCl 86, KCl 2, MgCl2 1, CaCl2 1.8, HEPES 5, Na pyruvate 2.5, theophylline 0.5, gentamicin 0.1 adjusted to pH 7.5 with NaOH (ND-96) for […] before injection. For most experiments, oocytes were injected with 10 ng of cRNA in 50 nl of RNase free water. Control oocytes were injected with 50 nl of water. […]\nEach curve represents the difference between the current measured with and without 10 μM glutamate. […]"}
{"substance": "ivermectin phosphate [IVM-PO4]", "values": [{"measurement": "n (exponent of equation (1))", "result": 1.0}]}
